The source of these data is article PMC13191473.

This test deals with T1, AXL (mouse (endogenous in lung tissue)) (UniProt Q00993).
T1 sequence: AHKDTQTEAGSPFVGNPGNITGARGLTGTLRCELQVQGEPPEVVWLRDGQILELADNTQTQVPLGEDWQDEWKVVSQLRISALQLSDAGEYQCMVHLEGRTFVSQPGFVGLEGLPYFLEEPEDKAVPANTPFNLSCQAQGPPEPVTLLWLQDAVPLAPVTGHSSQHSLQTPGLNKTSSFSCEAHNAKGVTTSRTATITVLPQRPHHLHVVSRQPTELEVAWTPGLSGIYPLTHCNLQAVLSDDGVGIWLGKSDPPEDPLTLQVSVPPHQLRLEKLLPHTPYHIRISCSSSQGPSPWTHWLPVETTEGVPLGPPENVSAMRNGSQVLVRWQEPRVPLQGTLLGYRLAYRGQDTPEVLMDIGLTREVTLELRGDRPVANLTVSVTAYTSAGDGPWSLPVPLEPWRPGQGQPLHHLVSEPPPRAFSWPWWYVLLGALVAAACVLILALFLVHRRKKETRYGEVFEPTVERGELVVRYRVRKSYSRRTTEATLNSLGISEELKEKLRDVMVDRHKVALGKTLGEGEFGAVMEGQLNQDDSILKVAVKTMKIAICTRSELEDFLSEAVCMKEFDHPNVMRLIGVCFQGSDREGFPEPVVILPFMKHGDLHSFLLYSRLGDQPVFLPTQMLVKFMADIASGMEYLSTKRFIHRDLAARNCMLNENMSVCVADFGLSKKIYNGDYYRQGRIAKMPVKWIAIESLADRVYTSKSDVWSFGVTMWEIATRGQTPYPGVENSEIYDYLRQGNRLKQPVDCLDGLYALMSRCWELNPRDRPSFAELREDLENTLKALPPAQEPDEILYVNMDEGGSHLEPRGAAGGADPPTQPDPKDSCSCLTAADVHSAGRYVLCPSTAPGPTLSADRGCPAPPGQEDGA
In words: co-IP; Lung tissue lysate (RIPA, protease inhibitors) from vehicle- or rPROS1-treated mice (2 μg/mouse/day for 4 days); precleared with Dynabeads protein G; anti-AXL antibody or IgG with Dynabeads protein G overnight at 4°C; immunoblots for Gab1, p85 and AXL. A general note: A western blot detects proteins with antibodies after separation by electrophoresis.

No constants are given. Whether binding was seen depends on the method and setting. Binding seen in cells or lysates may run through a third protein. Some results given as binding are weak or reduced against the parent protein; the word gives no strength.

B1: Gab1 (protein, UniProt Q9QYY0 1-695)
chain: MSGGEVVCSGWLRKSPPEKKLKRYAWKRRWFVLRSGRLTGDPDVLEYYKNDHAKKPIRIIDLNLCQQVDAGLTFNKKEFENSYIFDINTIDRIFYLVADSEEDMNKWVRCICDICGFNPTEEDPVKPLTGSSQAPVDSPFAISTAPASSQMEASSVALPPPYQVISLPPHPDTLGLQDDPQDYLLLINCQSKKPEPNRTLFDSAKPTFSETDCNDNVPSHQTPASSQSKHGMNGFFQQQMMYDCPPSRLTSVSGESSLYNLPRSYSHDVLPKESPSSTEADGELYTFNTPSGTAGVETQMRHVSISYDIPPTPGNTYQIPRTFPESTLGQSSKLDTIPDIPPPRPPKPHPTHDRSPVETCGVPRTASDTDSSYCIPPPAGMTPSRSNTISTVDLNKLRKDASSQDCYDIPRTFPSDRSSSLEGFHSQYKIKSVLTAGGVSGEELDENYVPMNPNSPPRQHSGSFTEPIQEPNYVPMTPGTFDFSSFGMQVPPPAHMGFRSSPKTPPRRPVPVADCEPPPVDRNLKPDRKVKPAPLDIKPLSEWEELQAPVRSPITRSFARDSSRFPMSPRPDSVHSTTSSSDSHDSEENYVPMNPNLSGEDPNLFASNSLDGGSSPMNKPKGDKQVEYLDLDLDSGKSTPPRKQKSSGSGSSMADERVDYVVVDQQKTLALKSTREAWTDGRQSTESETPTKNVK
With B1, the binding result is reported as “binds”.
